Data as given in PubChem BioAssay AID1259254 (NCATS, 2017).

Test: 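Gene knock-downs that lead to re-replication, shown by excess G2 DNA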 (primary screen)
Cells: human HCT116 colorectal cancer cells
Reagents: single siRNA against human genes
Duration: 3 days
Read-out: 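Nuclei stained with Hoechst and imaged; cell-cycle phase assigned by DNA content; G2 share scaled per plate, non-targeting siRNA 0%, GMNN siRNA 100%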
Direction: G2 robust z-score and G2 cells, % of GMNN control: higher = more G2 cells, more excess DNA replication
Active means: 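An siRNA counts as active if its G2 robust z-score lies at least 5 MADs above the screen median; here such calls match roughly 38% of GMNN control or more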
Here is one part, drawn at random, of about 59,000 deposited reagents. Of all reagents, about 1,550 (2.6%) were called active. 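G2 share is only a proxy for re-replication; each gene was hit by three separate siRNAs, and active genes were retested.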 The numbers tell different reagents against one gene apart. Further read-outs or replicates are left out here. No sequences are given here. The record does not give: the amount of reagent.

For SETD5 (SET domain containing 5) #1, what does the deposit list?
G2 robust z-score: 0.312; G2 cells, % of GMNN control: 5.17; activity call: inactive

How did the screen score SETD5 (SET domain containing 5) #2?
G2 robust z-score: -0.339; G2 cells, % of GMNN control: 0.58; activity call: inactive

Which result is listed for SETD5 (SET domain containing 5) #3?
G2 robust z-score: 1.27; G2 cells, % of GMNN control: 11.9; activity call: inactive

With ART1 (ADP-ribosyltransferase 1) #1, how do the results read?
G2 robust z-score: -1.16; G2 cells, % of GMNN control: -5.18; activity call: inactive

With ART1 (ADP-ribosyltransferase 1) #2, what was measured?
G2 robust z-score: 1.76; G2 cells, % of GMNN control: 15.3; activity call: inactive

With ART1 (ADP-ribosyltransferase 1) #3, what does the deposit list?
G2 robust z-score: 0.2; G2 cells, % of GMNN control: 4.38; activity call: inactive

Which result is listed for SUN2 (Sad1 and UNC84 domain containing 2) #1?
G2 robust z-score: 3.61; G2 cells, % of GMNN control: 28.4; activity call: inactive

For SUN2 (Sad1 and UNC84 domain containing 2) #2, how do the results read?
G2 robust z-score: 0.464; G2 cells, % of GMNN control: 6.23; activity call: inactive

With SUN2 (Sad1 and UNC84 domain containing 2) #3, what was measured?
G2 robust z-score: 0.957; G2 cells, % of GMNN control: 9.7; activity call: inactive

What did the screen give for ATP2B1-AS1 (ATP2B1 antisense RNA 1) #1?
G2 robust z-score: -1.08; G2 cells, % of GMNN control: -4.64; activity call: inactive

Which result is listed for ATP2B1-AS1 (ATP2B1 antisense RNA 1) #2?
G2 robust z-score: -0.721; G2 cells, % of GMNN control: -2.1; activity call: inactive

With ATP2B1-AS1 (ATP2B1 antisense RNA 1) #3, what was measured?
G2 robust z-score: 0.333; G2 cells, % of GMNN control: 5.31; activity call: inactive

With CALM1 (calmodulin 1) #1, what does the deposit list?
G2 robust z-score: 1.85; G2 cells, % of GMNN control: 16; activity call: inactive

What is on record for CALM1 (calmodulin 1) #2?
G2 robust z-score: -1.19; G2 cells, % of GMNN control: -5.38; activity call: inactive

With CALM1 (calmodulin 1) #3, how do the results read?
G2 robust z-score: -0.334; G2 cells, % of GMNN control: 0.616; activity call: inactive

Which result is listed for MRPL45 (mitochondrial ribosomal protein L45) #1?
G2 robust z-score: 0.381; G2 cells, % of GMNN control: 5.65; activity call: inactive

Which result is listed for MRPL45 (mitochondrial ribosomal protein L45) #2?
G2 robust z-score: -0.867; G2 cells, % of GMNN control: -3.13; activity call: inactive

For MRPL45 (mitochondrial ribosomal protein L45) #3, how do the results read?
G2 robust z-score: -0.645; G2 cells, % of GMNN control: -1.57; activity call: inactive

Part of the list above, reformatted.
Target gene	siRNA no.	G2 robust z-score	G2 cells, % of GMNN control	activity call
SUN2 (Sad1 and UNC84 domain containing 2)	3	0.957	9.7	inactive
ATP2B1-AS1 (ATP2B1 antisense RNA 1)	1	-1.08	-4.64	inactive
